Reference: PMC11991916
No constants are given. Whether binding was seen depends on the method and setting. Binding seen in cells or lysates may run through a third protein. Where a sequence is shown, tags or fusion partners need not be part of it.

Amino acid sequences for entries named in this document (tags omitted). Residues count along the entry.
UniProt P25705, residues 44-553: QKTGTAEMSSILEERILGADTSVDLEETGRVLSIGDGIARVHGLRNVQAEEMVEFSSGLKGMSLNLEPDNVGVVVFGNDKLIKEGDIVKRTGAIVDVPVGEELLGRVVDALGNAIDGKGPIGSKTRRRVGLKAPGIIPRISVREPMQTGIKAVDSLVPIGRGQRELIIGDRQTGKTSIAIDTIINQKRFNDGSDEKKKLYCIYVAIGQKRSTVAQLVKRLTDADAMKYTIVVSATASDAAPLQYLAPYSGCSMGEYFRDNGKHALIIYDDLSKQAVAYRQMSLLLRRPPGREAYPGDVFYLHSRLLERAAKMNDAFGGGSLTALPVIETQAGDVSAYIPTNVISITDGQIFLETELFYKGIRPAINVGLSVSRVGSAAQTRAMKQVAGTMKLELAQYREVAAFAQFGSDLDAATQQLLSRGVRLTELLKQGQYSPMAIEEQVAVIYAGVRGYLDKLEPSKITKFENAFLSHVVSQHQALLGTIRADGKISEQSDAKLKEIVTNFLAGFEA

Molecular target: T1, PHB1–DK (prohibitin 1 fused to the fluorescent protein Dreiklang, expressed from the native genomic locus) (human) (UniProt P35232)
T1 sequence: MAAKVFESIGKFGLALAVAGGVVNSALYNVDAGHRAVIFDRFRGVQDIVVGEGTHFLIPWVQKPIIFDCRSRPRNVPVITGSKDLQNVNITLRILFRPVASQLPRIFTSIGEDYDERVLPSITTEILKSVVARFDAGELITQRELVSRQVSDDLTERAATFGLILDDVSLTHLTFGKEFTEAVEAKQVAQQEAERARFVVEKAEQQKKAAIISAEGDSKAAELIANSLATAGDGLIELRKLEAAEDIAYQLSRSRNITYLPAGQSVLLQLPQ
Experiment: co-IP; GFP-Trap agarose beads (nanobody against DK) mixed with 800 µg extract of mitochondria isolated from PHB1-DK or PHB2-DK knock-in U2OS cells; 20 mM Tris-HCl pH 7.5, 50 mM NaCl, 0.5 mM EDTA, 10% glycerol, 0.3% digitonin; 4 °C, 1 h; ten washes; western blot

binding: no binding
Substance: ATP5A (from UniProt P25705 44-553)
